Data published in patent publication US20120039878A1.
Residue numbers refer to the chain shown, from its start. Results are given in words; binding and its absence hold for the method and conditions named. Some entries that bind do so weakly or less than the wild type.

B1: murine monoclonal antibody 7D8 (ATCC Accession Number PTA-9468) (antibody, mouse IgG2b, V domains shown)
VH: EVQLVESGGRLVQPKGSLKLSCAASGFTFNTYAMYWIRQAPGKGLEWVARIRSKSNNYAIYYADSVKDRFTIFRDDSQSMLYLQMNNLKTEDTAMYYCVRPYSDSFAYWGQGTLVTVSA
VL: DVVMTQTPLSLPVSLGDQASISCRSSLSLVHSTGNTYLHWYLQKPGQSPKLLIYKVSNRFSGVPDRFSGSGSGTYFTLKISRVEAEDLGVYFCSQSTHVPFTFGGGTKLEIK
B2: murine monoclonal antibody 8G9 (antibody, mouse IgG2b, V domains shown)
VH: B1 VH
VL: B1 VL with L27Q
B3: murine monoclonal antibody 2A4 (ATCC Accession Number PTA-9662) (antibody, V domains shown)
VH: B1 VH
VL: B1 VL with L27Q

molecular target: ALλ amyloid deposits composed of λ2 fragments (λ2 protein, SEQ ID NO: 86); assay: Immunohistochemistry, 3 µg/mL mAb on formalin-fixed sections

binding | Binder
binds | B1
binds | B2
binds | B3
